# Assay results published in PubChem BioAssay AID2685 (National Center for Advancing Translational Sciences (NCATS), 2010).
# The campaign covered roughly 320,000 compounds. About 2,100 (0.66%) were called active. This list was built around the results that the source calls inconclusive (neither active nor inactive); the mix of calls is not that of the screen. Calls follow the shape of the dose curve; as a rule, active = well fitted inhibition curve with a large enough effect in the signal ratio, with a control signal flat (not every such curve was filed as active); inconclusive = small, poorly fitted or top-dose-only effect, or effect the other way, or a change in a side signal; inactive = flat fitted curve, though single readings scatter; the % refers to the signal ratio. A potency beside an inconclusive call is a rough fit, not a confirmed value.
# Assay: qHTS Assay for Lipid Storage Modulators in Drosophila S3 Cells
# Conditions: BODIPY lipid droplet fluorescence, 18-24 h, cells fed with added oleic acid; lipid storage change, negative = inhibition: at 46.1 µM (top of the series) unless noted
# How it was run: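 Drosophila S3 cells loaded with oleic acid (400 uM, as added) and compounds at several concentrations; lipid droplets imaged by 488-nm laser-scanning cytometry, 500–530 nm intensity and object ratio to cell channel. Percent activity normalized to 20 uM Triacsin C.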
# % is scaled to controls: 0 for no effect and ±100 for the full control effect; potency is read from the fitted curve at half-maximal effect.
SMILES,"lipid storage change, negative = inhibition",Potency
Cc1ccc2cc(C3C(C#N)=C(N)Oc4c3ccc3cccnc43)c(=O)[nH]c2c1 (configuration not stated),inconclusive: -20.8%,
CCc1ccccc1NC(=O)c1cc(C2CC2)on1,inconclusive: 63.6%,
COc1cc2cc(C)c(SCC(=O)N3CCOCC3)nc2cc1OC,inconclusive: 47.1%,
CC(OC(=O)c1cc(S(=O)(=O)N(C)c2ccccc2)ccc1Cl)C(=O)Nc1ccc2c(c1)OCCO2 (configuration not stated),inconclusive: 22.1%,
O=C(CCN1C(=O)/C(=C/c2ccc3c(c2)OCO3)SC1=S)Nc1ccccc1,,"inconclusive: 0.731 µM [activator, full curve]"
O=C(COc1ccccc1)Nc1ccc(NC(=O)c2ccco2)cc1,inconclusive: 0.379%,
COc1ccc(C(=O)CCC(=O)NCCc2c[nH]c3ccccc23)cc1,inconclusive: -28.8%,
COc1ccc(C(=O)CN2C(=O)c3ccccc3S2(=O)=O)cc1,inconclusive: 13.6%,
Cc1nc(SCc2ccc(Br)cc2)[nH]c(=O)c1C,inconclusive: 32.6%,
CC(=O)c1cccc(NC(=O)CN(c2ccccc2)S(C)(=O)=O)c1,,"inconclusive: 3.66 µM [activator, partial curve]"
O=C(Nc1cc(SCCO)cc([N+](=O)[O-])c1)c1ccco1,inconclusive: 26%,
Cc1[nH]c2ccccc2c1C(c1ccncc1)N1CCC(C)CC1 (configuration not stated),inconclusive: -2.3%,
COc1ccc(CC(=O)Nc2ccccc2N2CCOCC2)cc1OC,inconclusive: 25.4%,
Cc1ccc(NC(=O)c2cc(C)nc3ccccc23)c(Br)c1,,"inconclusive: 6.51 µM [activator, single point]"
O=C(NCCC1CCCC1)C1CCC(=O)N(CCCN2CCCC2=O)C1 (configuration not stated),,"inconclusive: 5.17 µM [activator, single point]"
O=C(C1CCC1)N1CCc2cc(S(=O)(=O)NCc3ccccn3)ccc21,inconclusive: 0.957%,
Cc1ccc2nc(C)cc(C(=O)Nc3nccs3)c2c1,,"inconclusive: 0.058 µM [activator, full curve, poor fit]"
O=S(=O)(NC1=NCCCCC1)c1ccc(Cl)cc1,inconclusive: 20.7%,
COc1ccccc1N1CCN(S(=O)(=O)CCNC(=O)c2ccc(OC(C)C)cc2)CC1,inconclusive: -33%,
COc1ccc(C(=O)Nc2ccccc2C(=O)NC(Cc2ccc(O)cc2)C(=O)NNC(=O)c2ccccc2)cc1 (configuration not stated),inconclusive: 16.9%,
CCN(CC)S(=O)(=O)c1ccc(O)c(C(=O)OCC(=O)N(C)Cc2ccccc2)c1,inconclusive: -13.4%,
O=C(Cc1ccc(Cl)c(Cl)c1)Nc1cccc(S(=O)(=O)N2CCOCC2)c1,inconclusive: 40.7%,
CCOC(=O)c1c(C)c(C(=O)Nc2ccccc2)c(C)n1CC,inconclusive: 53.2%,
Nc1ccc(-c2nnc(-c3ccccc3)o2)cc1,,active: 18.4 µM
COc1ccccc1C1=NN(C(=S)Nc2ccccc2)C(c2ccco2)C1 (configuration not stated),,"inconclusive: 29.1 µM [activator, single point]"
CC(=O)c1nn(-c2cccc(Br)c2)cc1C(=O)c1ccccc1,inactive,

# Shown as tab-separated lines: part of the list above.
SMILES	lipid storage change, negative = inhibition	Potency
CCc1ccccc1NC(=O)c1cc(C2CC2)on1	inconclusive: 63.6%	
COc1cc2cc(C)c(SCC(=O)N3CCOCC3)nc2cc1OC	inconclusive: 47.1%	
COc1ccc(C(=O)CN2C(=O)c3ccccc3S2(=O)=O)cc1	inconclusive: 13.6%	
Cc1nc(SCc2ccc(Br)cc2)[nH]c(=O)c1C	inconclusive: 32.6%	
CC(=O)c1cccc(NC(=O)CN(c2ccccc2)S(C)(=O)=O)c1		inconclusive: 3.66 µM [activator, partial curve]
O=C(Nc1cc(SCCO)cc([N+](=O)[O-])c1)c1ccco1	inconclusive: 26%	
COc1ccc(CC(=O)Nc2ccccc2N2CCOCC2)cc1OC	inconclusive: 25.4%	
Cc1ccc(NC(=O)c2cc(C)nc3ccccc23)c(Br)c1		inconclusive: 6.51 µM [activator, single point]
O=C(NCCC1CCCC1)C1CCC(=O)N(CCCN2CCCC2=O)C1 (configuration not stated)		inconclusive: 5.17 µM [activator, single point]
COc1ccc(C(=O)Nc2ccccc2C(=O)NC(Cc2ccc(O)cc2)C(=O)NNC(=O)c2ccccc2)cc1 (configuration not stated)	inconclusive: 16.9%	
O=C(Cc1ccc(Cl)c(Cl)c1)Nc1cccc(S(=O)(=O)N2CCOCC2)c1	inconclusive: 40.7%	
CCOC(=O)c1c(C)c(C(=O)Nc2ccccc2)c(C)n1CC	inconclusive: 53.2%	
COc1ccccc1C1=NN(C(=S)Nc2ccccc2)C(c2ccco2)C1 (configuration not stated)		inconclusive: 29.1 µM [activator, single point]
CC(=O)c1nn(-c2cccc(Br)c2)cc1C(=O)c1ccccc1	inactive	

# The list goes on:

SMILES,"lipid storage change, negative = inhibition",Potency
O=C(Cc1cccs1)N/N=C/c1ccc(OCc2ccccc2)cc1,inconclusive: -9.87%,
Cc1[nH]c2ccc3ncccc3c2c1C,,"inconclusive: 2.59 µM [rising, single point]"
O=c1c2ccccc2ncn1Cc1ccc2c(c1)OCO2,,"inconclusive: 6.51 µM [activator, partial curve]"
O=C(NCc1cccc(Cl)c1)C1CCCO1 (configuration not stated),inconclusive: 49.2%,
Cc1ccccc1-n1cc(CNCc2c(C(=O)N(C)C)nc3ccc(Cl)cn23)cn1,inconclusive: 37.9%,
CCCn1c(=O)c2c(C(F)(F)F)cc(-c3cccs3)nc2n(CCC)c1=O,inconclusive: 0.283%,
CCN(CC)S(=O)(=O)c1ccc2c(c1)c(=O)c(C(=O)NCc1cccs1)cn2C,inconclusive: -1.05%,
COc1ccc(-n2nnnc2/C(=C/N(C)C)C(=O)c2ccccc2)cc1,inconclusive: -3.87%,
Cc1ccc(NS(=O)(=O)c2cc(NC(=O)c3cc4c(s3)CCCC4)ccc2C)c(C)c1,inconclusive: 21.6%,
CCOC(=O)c1cccc2c1-c1ccccc1/C2=N/O,inconclusive: 8.2%,
Cc1cc(N)n(-c2nc(-c3cccnc3)nc3ccccc23)n1,inconclusive: 10.5%,
CC(C)(C)OC(=O)N1CCC[C@H]1c1nnc(SCc2c(F)cccc2Cl)o1,,"inconclusive: 6.51 µM [activator, single point]"
CCC(=O)Nc1nnc(SCC(=O)NC2CCCC2)s1,inconclusive: -2%,
CCn1c(=O)c2cc(C(=O)NCC(OC)OC)sc2c2ccccc21,inactive,
Cc1noc(C)c1C(=O)OCC(=O)Nc1c(F)cccc1F,inconclusive: 20.6%,
O=C1c2ccccc2C(=O)N1CC1=NCCc2ccccc21,inconclusive: -9.57%,
NC(=O)CC(NC(=O)c1ccccc1)c1ccc(N2CCCCCC2)c([N+](=O)[O-])c1 (configuration not stated),inconclusive: 37%,
O=C(Nc1cccc2ccccc12)/C(=C/c1ccc([N+](=O)[O-])cc1)NC(=O)c1ccccc1,,"inconclusive: 0.82 µM [activator, full curve, poor fit]"
COc1ccc(C(C)NC(=O)C23CC4CC(CC(C4)C2)C3)cc1OC (configuration not stated),inconclusive: 4.06%,
O=C(CS(=O)c1ccc(C(F)(F)F)cc1[N+](=O)[O-])Oc1ccc(Cl)cc1 (configuration not stated),inconclusive: -82.6%,
Cc1ccc(C(=O)OCC(=O)NCc2ccc(F)cc2)o1,inconclusive: 10.9%,
COc1ccc(C(=O)NNC(=O)Cc2ccc(-c3ccccc3)cc2)cc1OC,inconclusive: -51%,
CCn1cc(-c2ccccc2)c(C(=O)O)c1-c1ccc(OC)cc1,inconclusive: 12.6%,
O=C(CCCn1c(=S)[nH]c2ccccc2c1=O)N1CCN(c2cccc(Cl)c2)CC1,inconclusive: 8.92%,
CC(=O)Nc1ccc(NC(=O)CCSCCc2ccccn2)cc1,inconclusive: -36.4%,
COc1ccc(NC(=O)Cn2c(=O)n(CC3CCCO3)c(=O)c3cc(OC)c(OC)cc32)cc1OC (configuration not stated),,"inconclusive: 11.6 µM [activator, partial curve, poor fit]"
